Measurements reported in PubChem BioAssay AID1259259 (Sanger Institute, 2017)

- Assay: 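Synthetic lethal kinase partners of anchor drugs in colorectal cancer cells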 (primary screen)
- System: SW1463 human colorectal cancer cells
- Reagent: siRNA pool against human genes
- Conditions: DMSO vehicle, or one anchor drug: BYL719 at 1 µM, cetuximab at 5 µg/ml, or trametinib at 10 nM
- Read-out: 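Viability as fraction of control pool 2 (non-targeting), replicate mean; knock-down robust z-score without any drug; synergy score averaged for each anchor drug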
- Reading the numbers: robust z-score, knock-down alone: higher = more viable cells after knock-down
- Hit rule: 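Knock-down called essential when its robust z-score without drug falls below -3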
- Calls: active = essential: viability loss from knock-down alone; inactive = no change from knock-down alone
The deposit covers 794 reagents; below is a part drawn at random. 9 of all reagents (1.1%) were called active. 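Calls rest on knock-down alone, not drug synergy; viability values seem capped at 1.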 Unmarked entries are inactive. Not all columns of the deposit are shown. The record does not give: the amount of reagent, the time to read-out.

With knock-down of SYNCRIP (GeneID 10492), the record shows robust z-score, knock-down alone -0.847. Knock-down of MAP2K2 (GeneID 5605) gave: robust z-score, knock-down alone -0.161. Depletion of SLK (GeneID 9748) resulted in: robust z-score, knock-down alone 1.13. ATR (GeneID 545) gave robust z-score, knock-down alone -0.209. PRKAR2A (GeneID 5576) showed robust z-score, knock-down alone 0.438. With knock-down of PNCK (GeneID 139728), the record shows robust z-score, knock-down alone 1.13.

Silencing of HSPB8 (GeneID 26353) gave: robust z-score, knock-down alone 0.544. Knock-down of PRKY (GeneID 5616) came out at: robust z-score, knock-down alone 1.13. Against RPS6KC1 (GeneID 26750), the entry reads robust z-score, knock-down alone -0.804. For IRAK2 (GeneID 3656), the values are robust z-score, knock-down alone 1.13. Knock-down of MAPKAPK2 (GeneID 9261) resulted in: robust z-score, knock-down alone 0.00778. Silencing of MAGI3 (GeneID 260425) gave: robust z-score, knock-down alone 1.13.

DDR1 (GeneID 780) gave robust z-score, knock-down alone 1.13. Against NLK (GeneID 51701), the entry reads robust z-score, knock-down alone -0.449. Depletion of SRC (GeneID 6714) gave: robust z-score, knock-down alone -1.25. After knock-down of LRRK1 (GeneID 79705), the record shows robust z-score, knock-down alone 1.13. For PIK3CB (GeneID 5291), the entry reads robust z-score, knock-down alone -0.615. Against AKT3 (GeneID 10000), the entry reads robust z-score, knock-down alone -0.588.

Against NEK8 (GeneID 284086) the deposit lists robust z-score, knock-down alone 0.137.
